Results reported in publication PMC7819943, “Rice protein-binding microarrays: a tool to detect cis-acting elements near promoter regions in rice”.
This is one part of the list.

biological target: T1, OsSMF1 (Oryza sativa, UniProt Q6ZLB0 1-436); experiment: protein-binding microarray (RPBM); PBS, 2% BSA, 51.3 ng/ul salmon testes DNA, 50 uM zinc acetate, 200 nM TF, 25 C, 1 h; high values mean tight binding; details: protein: recombinant; tags: N-terminal polyhistidine and DsRed monomer fusion (pET32a); chain copies: 2; label: CyDye5-dUTP incorporated in the synthesized complementary strand; 3' TTTTT single-stranded linker to array surface; dsDNA, one strand shown
T1 sequence: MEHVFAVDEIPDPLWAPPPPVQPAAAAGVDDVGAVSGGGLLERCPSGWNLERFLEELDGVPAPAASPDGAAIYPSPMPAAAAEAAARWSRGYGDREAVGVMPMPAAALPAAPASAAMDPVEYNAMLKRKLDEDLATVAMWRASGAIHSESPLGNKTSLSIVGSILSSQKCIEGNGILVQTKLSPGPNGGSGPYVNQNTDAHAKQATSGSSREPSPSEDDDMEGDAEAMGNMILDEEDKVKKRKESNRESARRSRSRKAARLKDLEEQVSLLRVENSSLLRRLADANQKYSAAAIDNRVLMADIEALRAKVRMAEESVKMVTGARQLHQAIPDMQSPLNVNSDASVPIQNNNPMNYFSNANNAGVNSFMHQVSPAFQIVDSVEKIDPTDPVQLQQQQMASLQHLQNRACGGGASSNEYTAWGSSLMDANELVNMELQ
Summary of the method: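 Transcription factors were made in E. coli BL21-CodonPlus as N-terminal fusions to a polyhistidine tag and DsRed, then purified on Ni–NTA. After primer extension with Cy5-dUTP and blocking with 2% BSA, a custom Agilent array was exposed for 1 h at 25 °C to 200 nM protein in PBS, 2% BSA, salmon testes DNA and 50 µM zinc acetate. Washed arrays were scanned on an Axon 4000B, and the binding signal is per-feature fluorescence intensity in arbitrary units.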

Sequence | binding signal
TTTGATCACCGGTCCGGTCTTAATAACTATGTGGCAGACGCGGAGTCACCTAGTGCAG | 3660 fluorescence intensity (a.u.)
AAGAAGAAGGAAGACGTGCCATCGTCGTCACACGCGTACGCGGAGTCACCTAGTGCAG | 4170 fluorescence intensity (a.u.)
CGAGAGGTACCGCGCGCTGCCGGCGGAGAAGCGGGCGAGGCGGAGTCACCTAGTGCAG | 41500 fluorescence intensity (a.u.)
CGAGAGCTTCCAGACGATGTGGTCTGACTCATTTTGGTTTCGGAGTCACCTAGTGCAG | 6860 fluorescence intensity (a.u.)
GTACAGTACAAATTCATGCGCCCACAATACACGTGTGCATCGGAGTCACCTAGTGCAG | 12900 fluorescence intensity (a.u.)
AGATCCAAACTTTGGATCTAAACACAGCCTTAGTAGTAGTCGGAGTCACCTAGTGCAG | 35800 fluorescence intensity (a.u.)
CTCCATCCGTTTCACAATGTAAGTCATTCTAGCATTTCACCGGAGTCACCTAGTGCAG | 3980 fluorescence intensity (a.u.)
CAAGCCATGGATGCTTATAAAATGCATTCACAGTCACAGACGGAGTCACCTAGTGCAG | 4260 fluorescence intensity (a.u.)
GAGAGCTCTAGCTACAGCTATACATACGTGTACCCAACGGCGGAGTCACCTAGTGCAG | 5940 fluorescence intensity (a.u.)
AGAAACCTGGAACATTCCTGTATTGTTGGTTGTCCCATTTCGGAGTCACCTAGTGCAG | 25300 fluorescence intensity (a.u.)
GCTACAGTAACCCACGTGTGCTAACGACGGATTAATTAGGCGGAGTCACCTAGTGCAG | 5050 fluorescence intensity (a.u.)
ACCGATGCCATCATCCACGTCATCGTCCACGTGTCACCCACGGAGTCACCTAGTGCAG | 45100 fluorescence intensity (a.u.)
AACTCACTTAAAACGGTTTAGGTTCAATCCATATCCTAACCGGAGTCACCTAGTGCAG | 26400 fluorescence intensity (a.u.)
GGTCTTCTCCGAGACGGGTGATTGCGTCATGGTGACCGACCGGAGTCACCTAGTGCAG | 10300 fluorescence intensity (a.u.)
TCGAACTGTGAGTCTGAGGTGTCCTCACCAACTTCCTTCACGGAGTCACCTAGTGCAG | 4940 fluorescence intensity (a.u.)
CTGCACATAATAACGTGGATGAATCTTAAACGTCCATTTACGGAGTCACCTAGTGCAG | 47100 fluorescence intensity (a.u.)
GATCAGGAGGTGTGGGCTGACATGGGCACCGCCGTCAGGGCGGAGTCACCTAGTGCAG | 4260 fluorescence intensity (a.u.)
GATGTTTTACGCTCCCAAATATATTAATACATTGGATCACCGGAGTCACCTAGTGCAG | 4110 fluorescence intensity (a.u.)
ATCCCCTACTTTACTCACTGACACGTGGGCCCAAGAAATTCGGAGTCACCTAGTGCAG | 8260 fluorescence intensity (a.u.)
GTGGGTACTTAGTGTTAGTGTTGTCGTGCGTTATCCATGTCGGAGTCACCTAGTGCAG | 3160 fluorescence intensity (a.u.)
AAACGACTTTCTTTACGAGTACAGATGGAGTAATAGTTAACGGAGTCACCTAGTGCAG | 26900 fluorescence intensity (a.u.)

Sequence | binding signal
TTACTACCATTGATCTGACATACTATTCCCTCAAGTTCTTCGGAGTCACCTAGTGCAG | 3260 fluorescence intensity (a.u.)
GGCTAGCGTACAGGTTAAAACGTGTCGGAATCGTCAGCGCCGGAGTCACCTAGTGCAG | 4110 fluorescence intensity (a.u.)
GGCCCCACCTGCAGCGACTGTTAGTCCAACGTGGCACTATCGGAGTCACCTAGTGCAG | 11600 fluorescence intensity (a.u.)
AAGAGGAAGATAGTAGGTGGTCTCCATCAGTTTGACTTGGCGGAGTCACCTAGTGCAG | 4130 fluorescence intensity (a.u.)
TCTCCCCAATTTTAGAAACTAAACACAGCCTACGTCATATCGGAGTCACCTAGTGCAG | 6630 fluorescence intensity (a.u.)
TCAGAGTAGAGCGGCCAGCACAGCATTGGCACACCCGCGGCGGAGTCACCTAGTGCAG | 3720 fluorescence intensity (a.u.)
GCTGTACAACATCCCTAGTCAGCATTTATTATTTCCAGTGCGGAGTCACCTAGTGCAG | 5180 fluorescence intensity (a.u.)
ATCGCGCGGATGCTTGTCGTGTCGGCGAGGAAGTGGGGTGCGGAGTCACCTAGTGCAG | 3800 fluorescence intensity (a.u.)
CCAAAATTAGCTTCGGTCGGTACAAACACCAGAATTCAGCCGGAGTCACCTAGTGCAG | 3220 fluorescence intensity (a.u.)
GCTAGCTAAGAGCGAGCTTCATTAACATACGAGACAGAGACGGAGTCACCTAGTGCAG | 4530 fluorescence intensity (a.u.)
GCAAGCAAAGAAAGTTGTCATCATCCCAATCCTCCTCCGCCGGAGTCACCTAGTGCAG | 4050 fluorescence intensity (a.u.)
CCATGTATATATTGGAGCGGGGTGGCGGTGTAGATCAATGCGGAGTCACCTAGTGCAG | 3700 fluorescence intensity (a.u.)
GACAAGCGTGGTGAAGTGGTGGGGAGTTGCGGGAGGGAGGCGGAGTCACCTAGTGCAG | 3630 fluorescence intensity (a.u.)
GATACACAAAGCTACCTAAGGACCTTGTGCGTGACGAGGACGGAGTCACCTAGTGCAG | 4470 fluorescence intensity (a.u.)
TCTCGGCCCGCCGCCGCCTCCTCCGCTCGAGCCGCACCGCCGGAGTCACCTAGTGCAG | 24500 fluorescence intensity (a.u.)
TGCTGCCAGTGACTAATGATAATCTGTCTGCAATTGAGACCGGAGTCACCTAGTGCAG | 4640 fluorescence intensity (a.u.)
GACTGAAGTTTGGATTCAAATTTTGGATCTAGACACAGCCCGGAGTCACCTAGTGCAG | 3210 fluorescence intensity (a.u.)
GCGACGCCACATTCACGGTAATAAGGTGGTAACACGCGTACGGAGTCACCTAGTGCAG | 3560 fluorescence intensity (a.u.)
GCCTCGAGCGTTTATTGCGTGAATGCTCTTTCTGTTGCTGCGGAGTCACCTAGTGCAG | 3400 fluorescence intensity (a.u.)
ATCAAAATGAAAACTCAGGGGTATATAAGGGATGATGTCACGGAGTCACCTAGTGCAG | 3380 fluorescence intensity (a.u.)
TGTGGTGTTGTATATTTTCCGTGTAACAGGGAAAATCATTCGGAGTCACCTAGTGCAG | 3470 fluorescence intensity (a.u.)

Reprinted at random: 3 records from the list
Sequence | binding signal
AACTCACTTAAAACGGTTTAGGTTCAATCCATATCCTAACCGGAGTCACCTAGTGCAG | 26400 fluorescence intensity (a.u.)
GAGAGCTCTAGCTACAGCTATACATACGTGTACCCAACGGCGGAGTCACCTAGTGCAG | 5940 fluorescence intensity (a.u.)
GGCTAGCGTACAGGTTAAAACGTGTCGGAATCGTCAGCGCCGGAGTCACCTAGTGCAG | 4110 fluorescence intensity (a.u.)
